Experimental data: PubChem BioAssay AID602196 (INSERM, 2012)
The deposit covers about 23,000 reagents; this is a part drawn at random. Over the whole deposit, 455 (2%) were called active. 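Active includes both protection and sensitisation; some change values fall well beyond the stated -50 to +50 range.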 Entries without a mark were called inactive. Further read-outs or replicates are left out here. The record does not give: the amount of reagent.

Screen: 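Knock-downs that protect lung cancer cells from cisplatin or sensitise them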
System: human A549 lung cancer cells
Knock-down reagent: siRNA pair against human genes
Timing: 48 h transfection before cisplatin; time from cisplatin to read-out not stated
Conditions: cisplatin at a dose killing half of control-siRNA cells; exact dose and duration not given
Detection: 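Shift in cisplatin death relative to control siRNA, from -50 (all cells die) to +50 (no cells die); siRNAs harmful on their own scored 0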
Scale: two-siRNA summed score (-2 to +2): higher = both siRNAs protect from cisplatin killing; -2 means both sensitise
Rule for the call: 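siRNAs harmful alone (LDH or WST-1) get 0; others get +1 for less and -1 for more cisplatin killing; genes are active when the two siRNAs give the same sign, summing to ±2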
Calls: active = both siRNAs shift cisplatin killing the same way; inactive = no consistent shift, or siRNA harmful alone

With knock-down of KRT77 [SID131508494], the record shows two-siRNA summed score (-2 to +2) = 0.
C5orf46 [SID131517097] showed two-siRNA summed score (-2 to +2) = 0.
Against PBK [SID131512908], the values are two-siRNA summed score (-2 to +2) = 0.
Knock-down of LOC440407 [SID131518604] gave: two-siRNA summed score (-2 to +2) = 0.
Silencing of RAD9B [SID131508392] resulted in: two-siRNA summed score (-2 to +2) = 0.
For TMEM39A [SID131506108] the deposit lists two-siRNA summed score (-2 to +2) = 0.
With knock-down of LOC341306 [SID131517112], the record shows two-siRNA summed score (-2 to +2) = 0.
Knock-down of XPO5 [SID131514872] gave: two-siRNA summed score (-2 to +2) = 0.
After knock-down of LOC402563 [SID131506422], the screen gave two-siRNA summed score (-2 to +2) = 0.
Silencing of LOC120318 [SID131508856] resulted in: two-siRNA summed score (-2 to +2) = 0.
Against DHRS7B [SID131503463], the values are two-siRNA summed score (-2 to +2) = 0.
VWF [SID131515399] gave two-siRNA summed score (-2 to +2) = 0.
Knock-down of OR51V1 [SID131508370] came out at: two-siRNA summed score (-2 to +2) = 0.
Depletion of CLDN10 [SID131517970] gave: two-siRNA summed score (-2 to +2) = 0.
After knock-down of PDCD10 [SID131503191], the record shows two-siRNA summed score (-2 to +2) = 0.
Depletion of LOC440860 [SID131512764] gave: two-siRNA summed score (-2 to +2) = 0.
LOC389239 [SID131512665] scored two-siRNA summed score (-2 to +2) = 0.
Knock-down of NDUFAF7 [SID131507292] gave: two-siRNA summed score (-2 to +2) = 0.
LOC374569 [SID131506307] scored two-siRNA summed score (-2 to +2) = 0.
Against TRIM7 [SID131511036], the values are two-siRNA summed score (-2 to +2) = 0.
ACVR1 [SID131520375] scored two-siRNA summed score (-2 to +2) = 1.

In a second layout: results already given.
{"gene symbol": "DHRS7B", "PubChem SID": "SID131503463", "two-siRNA summed score (-2 to +2)": 0}
{"gene symbol": "VWF", "PubChem SID": "SID131515399", "two-siRNA summed score (-2 to +2)": 0}
